Experimental data reported in patent publication US5296498A, “Guanidine compounds” (Adir et Compagnie, priority 1990, dated 1994).
Where a name gives a salt, the structure may show the parent alone. At least one compound was matched to its structure with a doubt left.

Legend:
endazoline receptors = assay: In vitro affinity test for endazoline receptors; assay type: binding; conditions: technique of A. Parini et al., read-out: Ki with respect to endazoline receptors
α1-adrenoceptors = assay: In vitro affinity test for α1-adrenoceptors; conditions: conventional binding technique, read-out: Ki with respect to α1-adrenoceptors
α2-adrenoceptors = assay: In vitro affinity test for α2-adrenoceptors; conditions: conventional binding technique, read-out: Ki with respect to α2-adrenoceptors

Question: What does the source list for `N=C(N)NN=CC(C1CC1)C1CC1` [Example 2, (2,2-Dicyclopropylethylidene)aminoguanidine hydrochloride]?
Answer: Ki (endazoline receptors): ~10 nM; Ki (α1-adrenoceptors): > 100000 nM; Ki (α2-adrenoceptors): ~2000 nM
